Reference: patent US6417159B1 (Queen's University at Kingston, priority 1996, dated 2002)
Part of at least one peptide drawing is inferred or uncertain, most often the ends. Where no end group is shown, it is not given here.

Test system: PC12 cells
Format: cell-based, rat
Conditions: 10 μM peptide in solution; no additive to culture medium
Experimental: Labeling of all tyrosinated peptides for uptake studies were carried out using IODO-BEADS™ (Pierce). Briefly, 5 μg of the desired peptide was iodinated at pH 7.4, at room temperature, and separated from free iodide by selective elution from a C-18 SEP PAK LIGHT™ (Waters-Millipore) in 80% CH3CN, 1.0% trifluoroacetic acid. The solvent was removed at room temperature under a stream of nitrogen. Specific activity of labeled peptide was 50-65 cpm-pg^−1.
Stock solutions of [^125I]-labeled peptides (final concentration […], specific activity 50-800 cpm·pmol^−1) were prepared in RPMI medium with 10% fetal calf serum. Uptake was initiated by adding the peptide to the cell suspension in RPMI 1640 with 10% fetal calf serum, maintained at 37° C. Cell-associated label was determined by counting the cell pellet obtained by microcentrifuging an aliquot (100 μl containing 1-3×10^5 cells) of the cell suspension through a layer of silicone oil. […]
The uptake versus were corrected for “adsorption” of peptides to the cell surface at zero time. This was assessed by determining label that remained associated with cells removed immediately after the addition of [^125I]-peptide and washed by 2 cycles of centrifugation at […] for 5 minutes and resuspension in peptide-free tissue culture medium. […] At the end of this time, cell-associated label was determined as above.

Question: With YLDALLAALRAIQR [Y-R9, YLDALLAALRAIQR] as the sequence, how does the “Time at half-maximal uptake” value read?
Answer: Its value is 30 min.

Question: For YLDALLAALRRRQR [Y-R10, YLDALLAALRRRQR], which “Time at half-maximal uptake” value is on record?
Answer: Its value is 30 min.
